# Measured values reported in PubChem BioAssay AID1469 (National Center for Advancing Translational Sciences (NCATS), 2008).
# The chains behind the UniProt entries cited, without tags or fusion partners. Where a name states a change or a piece, a line headed by the entry shows the natural chain unless it says otherwise.
# UniProt P10828: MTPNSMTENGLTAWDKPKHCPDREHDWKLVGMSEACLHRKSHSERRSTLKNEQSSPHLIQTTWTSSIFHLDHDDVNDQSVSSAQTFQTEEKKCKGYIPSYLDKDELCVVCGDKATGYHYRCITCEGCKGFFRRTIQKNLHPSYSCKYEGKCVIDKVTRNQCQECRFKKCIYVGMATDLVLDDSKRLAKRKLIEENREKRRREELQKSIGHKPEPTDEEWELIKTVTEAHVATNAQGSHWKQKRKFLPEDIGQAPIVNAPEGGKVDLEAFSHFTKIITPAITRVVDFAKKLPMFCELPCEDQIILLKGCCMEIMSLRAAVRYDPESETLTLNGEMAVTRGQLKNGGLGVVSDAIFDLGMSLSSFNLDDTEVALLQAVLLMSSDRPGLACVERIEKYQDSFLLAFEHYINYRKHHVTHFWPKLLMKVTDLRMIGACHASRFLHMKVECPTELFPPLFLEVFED
# The whole screen tested about 280,000 compounds, of which about 180 (0.064%) were called active. The inconclusive results got no clear call from the source; some entries with a clear call stand among them for comparison. Calls follow the shape of the dose curve; as a rule, active = well fitted inhibition curve with a large enough effect; inconclusive = small, poorly fitted or top-dose-only effect, or effect the other way; inactive = flat fitted curve, though single readings scatter. Where the call is inconclusive, the potency comes from a doubtful curve fit.
# Target: Thyroid hormone receptor beta (Homo sapiens) (UniProt P10828)
# Assay: qHTS for Inhibitors of the Interaction of Thyroid Hormone Receptor and Steroid Receptor Coregulator 2; also: nearly all actives have a fitted effect of over 50% in size
# Settings: TRbeta-SRC2 peptide binding, fluorescence polarization, receptor liganded with 1 µM T3; series mostly up to 106 µM
# Procedure, shortened: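 Human TRb LBD (0.6 uM) plus Texas Red-labeled SRC2 peptide (20 nM), 1uM T3, 5% DMSO, 5 hr at ambient temperature. Decreased polarization (555/632 nm) flags inhibition; data normalized to free and bound peptide controls.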
# Potency is read from the fitted curve at half-maximal effect.
row,Compound,Potency
1,COc1ccc(-c2noc(CSc3nnc(-c4ccncc4)n3-c3ccc(OC)cc3)n2)cc1,"inconclusive: 0.158 µM [inhibitor, full curve]"
2,O=Nc1c(O)[nH]c2ccc(Cl)cc12,inactive
3,Cc1[nH]nc2c1C(c1cccnc1)N(c1ccc(Br)cc1)C2=O (stereo not drawn),"inconclusive: 0.282 µM [inhibitor, full curve, poor fit]"
4,CCN(c1ccccc1)S(=O)(=O)c1ccc(NC(=O)c2cc(=O)c3cc(C)ccc3o2)cc1,inactive
5,O=C(/C=C/c1cccc([N+](=O)[O-])c1)NC(=S)Nc1cccc(NC(=O)c2ccccc2Cl)c1,inactive
6,Cc1c(NC(=O)COC(=O)c2cc(-c3cccc4ccccc34)nc3ccccc23)c(=O)n(-c2ccccc2)n1C,"inconclusive: 2.24 µM [inhibitor, full curve, poor fit]"
7,COc1ccc(CC(=O)Nc2cccc(-c3ccc4nnc(C)n4n3)c2)cc1,inactive
8,O=C(O)c1ccccc1-c1c2cc(Br)c(=O)c(Br)c-2oc2c(Br)c(O)c(Br)cc12,"inconclusive: 22.4 µM [inhibitor, partial curve]"
9,COc1ccccc1N1CCN(c2ccc(=O)n(CC(=O)Nc3ccc(F)c(F)c3)n2)CC1,inactive
10,COc1cccc(C(=O)Nc2nc(-c3ccncc3)cs2)c1,"inconclusive: 50.1 µM [activator, partial curve]"
11,CCOP(=O)(OCC)C(NC(=O)Nc1cccc(Cl)c1)C(N)=O (stereo not drawn),"inconclusive: 0.0708 µM [inhibitor, full curve, poor fit]"
12,CC(=O)c1ccc(NC(=O)Cn2c3ncccc3c(=O)n2-c2ccc(C)cc2)cc1,"inconclusive: 100 µM [inhibitor, partial curve, poor fit]"
13,CCCn1c(C)cc(-c2csc(N)n2)c1C,"inconclusive: 50.1 µM [inhibitor, partial curve]"
14,COc1ccc(S(=O)(=O)Nc2ccc(F)c(F)c2)cc1Cl,"inconclusive: 56.2 µM [inhibitor, partial curve, poor fit]"
15,COc1ccc(/C=N\Nc2ccc([N+](=O)[O-])cc2[N+](=O)[O-])c(C(=O)O)c1OC,inactive
16,COC(=O)c1ccccc1NC(=O)/C=C/c1ccco1,"inconclusive: 8.91 µM [inhibitor, partial curve]"
17,COC(=O)c1c(NC(=O)/C=C/C(=O)O)sc(C)c1-c1ccc(C)cc1,"inconclusive: 50.1 µM [inhibitor, partial curve]"
18,Cc1ccc(NC2=CC(=O)c3sc(C)nc3C2=O)cc1,"inconclusive: 28.2 µM [inhibitor, full curve, poor fit]"

# 2 entries drawn at random from the list so far, as already listed:
row,Compound,Potency
4,CCN(c1ccccc1)S(=O)(=O)c1ccc(NC(=O)c2cc(=O)c3cc(C)ccc3o2)cc1,inactive
5,O=C(/C=C/c1cccc([N+](=O)[O-])c1)NC(=S)Nc1cccc(NC(=O)c2ccccc2Cl)c1,inactive
